Some of these results come from one statement about several compounds together.
What was measured:
[1] = target: T1, D3 receptor (Rattus norvegicus, UniProt P19020); experiment: Induction of yawning behavior in rats; type: in vivo; settings: yawning vs hypothermia assays in rats
T1 construct: evaluated for the effect in the induction of yawning and hypothermia in rats; tissue Harlan; Indianapolis, Ind; host or cells: living male Sprague-Dawley rats
Method: Male Sprague-Dawley rats (Harlan; Indianapolis, Ind.) weighing 250-300 g were housed three to a cage for yawning studies, and one to a cage for hypothermia studies, and maintained on a 12-h dark/light cycle with lights on at 7:00 AM in a temperature (21-23° C.) and humidity controlled environment with free access to standard Purina rodent chow and water. […] All drugs were administered subcutaneously (s.c.) in a volume of 1 ml/kg.
Yawning behavior was defined as a prolonged (˜1 sec.), wide opening of the mouth followed by a rapid closure. On the day of testing, rats were transferred from their home cage to a test chamber (48 cm×23 cm×20 cm clear rodent cage with standard cob bedding), and allowed to habituate to the chamber for a period of 30 min prior to a sterile water injection which was administered 30 min prior to the injection of the compound of interest. Yawns were scored for a period of 60 min thereafter. Each compound was assessed in groups of 6 rats, with each rat receiving a single dose of one compound. […]
Dose-response curves for the induction of yawning and hypothermia were determined with 6 rats per group, and results expressed as the mean number of yawns, or change in body temperature 60 min post agonist injection compared to the body temperature 1 min prior to the agonist injection±standard error of the mean (SEM).

The chains behind the UniProt entries cited, without tags or fusion partners.
UniProt P19020, whole entry: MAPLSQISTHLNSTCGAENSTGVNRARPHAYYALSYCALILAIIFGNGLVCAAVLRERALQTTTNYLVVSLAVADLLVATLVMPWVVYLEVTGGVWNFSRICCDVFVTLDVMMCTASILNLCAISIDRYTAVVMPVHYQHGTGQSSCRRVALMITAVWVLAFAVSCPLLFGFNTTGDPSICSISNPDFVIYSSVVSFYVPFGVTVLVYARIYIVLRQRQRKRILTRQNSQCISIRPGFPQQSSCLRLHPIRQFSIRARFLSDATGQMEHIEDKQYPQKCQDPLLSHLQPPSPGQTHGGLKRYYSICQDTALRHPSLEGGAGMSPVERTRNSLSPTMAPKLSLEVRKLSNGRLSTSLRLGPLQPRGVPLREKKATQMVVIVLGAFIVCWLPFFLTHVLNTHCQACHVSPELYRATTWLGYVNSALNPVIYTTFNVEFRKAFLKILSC

[2] = target: T1, D3 receptor; settings: yawning and hypothermia assays; cited from earlier work

Row | SMILES | In vivo selectivity for D3 over D2 [1] | In vivo selectivity at the D3 receptor over the D2 receptor (literature) [2]
1 | CCCN(CCC1CCC(NC(=O)c2cccc(-c3noc(C)n3)c2)CC1)C1CCc2nc(N)sc2C1 (stereo in doubt) [Compound 38, Trans-N-(4-2-(((s)-2-amino-4,5,6,7-tetrahydrobenzo[d]thiazol-6-yl)(propyl)amino)ethylcyclohexyl)-3-(5-methyl-1,2,4-oxadiazol-3-yl)benzamide] | over 1000 fold | 
2 | CCCN(CCC1CCC(NS(=O)(=O)c2cccnc2Cl)CC1)C1CCc2nc(N)sc2C1 (stereo in doubt) [Compound 52, Trans-N-(4-2-(((s)-2-amino-4,5,6,7-tetrahydrobenzo[d]thiazol-6-yl)(propyl)amino)ethylcyclohexyl)-2-chloropyridine-3-sulfonamide] | over 1000 fold | 
3 | O=C(NCCCCN1CCN(c2cccc(Cl)c2Cl)CC1)c1ccc2c(c1)Cc1ccccc1-2 [NGB 2904] |  | less than 10 fold
